# In patent US11141423B2, “Methods of screening compounds useful for treatment of a liver disease” (Icahn School of Medicine at Mount Sinai, priority 2010, dated 2021):
# Amino acid sequences for entries named in this document (tags omitted).
# UniProt P47746, whole entry: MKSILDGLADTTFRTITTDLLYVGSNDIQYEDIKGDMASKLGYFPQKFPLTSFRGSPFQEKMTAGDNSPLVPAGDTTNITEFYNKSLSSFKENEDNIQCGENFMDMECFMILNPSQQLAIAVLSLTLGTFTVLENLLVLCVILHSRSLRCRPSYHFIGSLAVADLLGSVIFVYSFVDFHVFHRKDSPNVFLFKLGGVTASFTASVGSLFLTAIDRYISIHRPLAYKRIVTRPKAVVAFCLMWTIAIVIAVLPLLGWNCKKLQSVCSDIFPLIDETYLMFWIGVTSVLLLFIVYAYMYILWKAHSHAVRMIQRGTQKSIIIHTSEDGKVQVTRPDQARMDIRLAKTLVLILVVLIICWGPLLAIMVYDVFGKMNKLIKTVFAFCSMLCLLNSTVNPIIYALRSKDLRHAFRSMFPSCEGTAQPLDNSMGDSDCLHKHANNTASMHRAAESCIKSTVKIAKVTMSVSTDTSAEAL
# At least one compound was matched to its structure with a doubt left.
# Target: T1, CB1R-AT1R heteromer (UniProt P30556+P47746)
# T1 construct: Neuro2A cells expressing endogenous CB1R and recombinant AT1R; expressed in transfected cells; host or cells: Neuro2A stably expressing AT1R (CB1R endogenous)
# Assay: Ang II-mediated pERK in Neuro2A-AT1R cells
# Assay type: cell-based
# Conditions: cells co-expressing CB1R and AT1R; PTX 15 nM, 16 hours; forskolin 1 μM, 30 min
# Method: Generation of HEK293-Transfected Cells and Neuro2A Cell Line Stably Expressing AT1R. These cell lines were generated using standard procedure of transfection and antibiotic selection of expressing cells. Screening of positive cells was carried out by immunostaining of the receptors to evaluate the homogeneity of expression in the clones.
# RNAi-mediated CB1R and βarrestin-2 downregulation.
# Neuro2A cells expressing endogenous CB1R and recombinant AT1R were pretreated with vehicle or THL (2 μM) for 3 hours in serum free media and stimulated with vehicle (CTL=control) or with the receptor ligand (angiotensin II) for 3 minutes. […] ERK phosphorylation was assessed by Western blot using antibodies to pERK and ERK (n=3-5). […] The cells were processed for infrared detection of pERK.
smiles,measurement,value
C=C[C@@]1(C)CC(=O)[C@]2(O)[C@@]3(C)[C@@H](O)CCC(C)(C)[C@@H]3[C@H](O)[C@H](OC(C)=O)[C@@]2(C)O1 [forskolin],"Effect on AT1R signaling (Ang II pERK), G protein coupling",decreased
